Binding signal data for 24 sequences are collected here from publication PMC7862700.

Sequences of proteins named here, by UniProt entry; tags and fusion partners are left off. A change or cut given only in a name is not applied to a line headed by its entry.
UniProt P32519: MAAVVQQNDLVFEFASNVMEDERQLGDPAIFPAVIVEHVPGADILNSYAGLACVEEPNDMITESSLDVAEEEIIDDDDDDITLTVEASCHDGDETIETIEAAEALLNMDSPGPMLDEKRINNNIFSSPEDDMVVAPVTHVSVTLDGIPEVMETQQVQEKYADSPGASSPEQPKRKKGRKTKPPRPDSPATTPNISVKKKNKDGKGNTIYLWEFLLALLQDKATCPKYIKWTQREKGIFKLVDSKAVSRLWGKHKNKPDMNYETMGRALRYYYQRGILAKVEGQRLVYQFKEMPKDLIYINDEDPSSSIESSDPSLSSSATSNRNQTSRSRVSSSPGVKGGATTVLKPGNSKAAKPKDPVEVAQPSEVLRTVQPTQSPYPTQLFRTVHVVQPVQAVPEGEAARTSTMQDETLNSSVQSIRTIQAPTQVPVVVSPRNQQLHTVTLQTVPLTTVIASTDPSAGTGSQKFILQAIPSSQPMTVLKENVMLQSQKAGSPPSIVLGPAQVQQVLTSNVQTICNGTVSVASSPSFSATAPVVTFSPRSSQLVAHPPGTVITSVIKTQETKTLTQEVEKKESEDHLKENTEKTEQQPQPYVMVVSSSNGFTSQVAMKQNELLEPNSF
UniProt P50549: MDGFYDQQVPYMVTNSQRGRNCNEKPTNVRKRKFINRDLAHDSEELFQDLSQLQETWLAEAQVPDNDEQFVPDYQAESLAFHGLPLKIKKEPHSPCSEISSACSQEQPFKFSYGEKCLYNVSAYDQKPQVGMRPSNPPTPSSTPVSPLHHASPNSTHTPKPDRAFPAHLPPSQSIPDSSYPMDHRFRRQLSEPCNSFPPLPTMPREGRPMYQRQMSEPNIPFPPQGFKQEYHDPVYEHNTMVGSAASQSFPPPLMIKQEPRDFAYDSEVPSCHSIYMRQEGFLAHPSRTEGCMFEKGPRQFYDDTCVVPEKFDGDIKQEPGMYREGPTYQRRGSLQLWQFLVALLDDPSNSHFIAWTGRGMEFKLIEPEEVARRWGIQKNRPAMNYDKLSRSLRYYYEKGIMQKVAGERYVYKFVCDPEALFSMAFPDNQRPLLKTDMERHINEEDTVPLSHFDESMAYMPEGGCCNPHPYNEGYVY

The entries are a selection whose mix differs from that of the whole data set. For part of these data: At the low end of the ranking the order means little. This is one part of the list. For part of these data: The exact form of the protein is not confirmed.

Common to all, as to assay: DAPPL (digital affinity profiling via proximity ligation, sequencing)
Settings in all cases: 10 mM Tris-HCl pH 7.5, 50 mM NaCl, 1 mM DTT, 4% glycerol, room temperature, 30 min; GST-TFs on glutathione beads, 16-mer random dsDNA library, 0.1% …; high values mean tight binding; double strand, one strand shown; scale: fold enrichment (6-mer frequency, TF over GST control)

One test addresses T1, ERG (UniProt P11308).
T1 sequence: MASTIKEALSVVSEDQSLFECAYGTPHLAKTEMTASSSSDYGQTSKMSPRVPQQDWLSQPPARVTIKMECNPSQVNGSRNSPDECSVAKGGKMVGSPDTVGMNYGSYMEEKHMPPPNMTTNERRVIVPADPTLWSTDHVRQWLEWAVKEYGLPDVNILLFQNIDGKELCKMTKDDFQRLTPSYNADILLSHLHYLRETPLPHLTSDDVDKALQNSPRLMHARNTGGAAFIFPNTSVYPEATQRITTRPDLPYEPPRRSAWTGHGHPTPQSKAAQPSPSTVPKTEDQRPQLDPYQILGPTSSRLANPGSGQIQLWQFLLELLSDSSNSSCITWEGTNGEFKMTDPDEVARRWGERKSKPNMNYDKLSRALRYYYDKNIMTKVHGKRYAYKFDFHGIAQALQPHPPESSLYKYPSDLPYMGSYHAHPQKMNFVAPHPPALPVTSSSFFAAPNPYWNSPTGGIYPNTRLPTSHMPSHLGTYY

Another test deals with ELF1 (UniProt P32519).
For the next test, the target named is T2, ELK4 (UniProt P28324-2).
T2 sequence: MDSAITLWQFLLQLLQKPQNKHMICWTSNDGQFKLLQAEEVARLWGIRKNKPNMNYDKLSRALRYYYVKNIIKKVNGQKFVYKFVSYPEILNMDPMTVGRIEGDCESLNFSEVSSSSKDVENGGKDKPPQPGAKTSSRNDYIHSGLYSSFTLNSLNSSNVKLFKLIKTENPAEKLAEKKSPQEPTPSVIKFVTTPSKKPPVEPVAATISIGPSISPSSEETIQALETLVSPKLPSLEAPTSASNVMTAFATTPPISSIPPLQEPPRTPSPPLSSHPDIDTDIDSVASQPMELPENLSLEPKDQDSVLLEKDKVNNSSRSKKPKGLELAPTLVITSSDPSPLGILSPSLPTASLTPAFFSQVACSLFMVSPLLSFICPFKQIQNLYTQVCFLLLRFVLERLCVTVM

The next test has as its target T3, ETV4 (UniProt P43268).
T3 sequence: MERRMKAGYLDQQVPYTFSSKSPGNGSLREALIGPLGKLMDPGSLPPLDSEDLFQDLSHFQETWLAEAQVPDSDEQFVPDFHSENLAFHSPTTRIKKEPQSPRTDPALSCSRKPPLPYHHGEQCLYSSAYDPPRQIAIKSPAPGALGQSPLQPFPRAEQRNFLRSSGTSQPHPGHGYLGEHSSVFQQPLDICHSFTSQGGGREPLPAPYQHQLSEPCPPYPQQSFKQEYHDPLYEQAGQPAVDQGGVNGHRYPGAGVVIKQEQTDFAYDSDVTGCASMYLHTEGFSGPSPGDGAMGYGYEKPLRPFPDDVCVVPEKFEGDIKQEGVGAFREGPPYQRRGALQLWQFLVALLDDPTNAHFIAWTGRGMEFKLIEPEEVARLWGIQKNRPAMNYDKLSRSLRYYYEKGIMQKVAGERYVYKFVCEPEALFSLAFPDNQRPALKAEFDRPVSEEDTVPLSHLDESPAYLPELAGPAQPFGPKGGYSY

The target of a further test is ETV1 (UniProt P50549).
The target of a further test is T4, ERF (UniProt P50548).
T4 sequence: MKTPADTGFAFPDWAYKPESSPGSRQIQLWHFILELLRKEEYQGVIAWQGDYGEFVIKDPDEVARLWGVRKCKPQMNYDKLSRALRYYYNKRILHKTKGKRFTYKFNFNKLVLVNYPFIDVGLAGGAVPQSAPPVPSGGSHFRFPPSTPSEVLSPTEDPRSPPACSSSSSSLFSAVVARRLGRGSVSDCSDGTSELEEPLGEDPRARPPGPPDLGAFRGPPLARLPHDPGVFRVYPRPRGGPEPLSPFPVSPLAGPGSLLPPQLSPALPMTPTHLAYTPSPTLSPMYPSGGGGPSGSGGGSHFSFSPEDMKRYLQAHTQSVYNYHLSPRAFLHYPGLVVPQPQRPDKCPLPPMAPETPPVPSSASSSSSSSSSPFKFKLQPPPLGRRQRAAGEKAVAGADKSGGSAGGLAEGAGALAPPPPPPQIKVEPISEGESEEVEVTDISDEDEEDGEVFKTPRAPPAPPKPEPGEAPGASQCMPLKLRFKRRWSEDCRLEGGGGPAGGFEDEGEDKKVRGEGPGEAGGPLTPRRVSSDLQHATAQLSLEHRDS

On to GATAGT, for which the binding signal in the test with ERG was found to be 0.824; with ELF1, 0.833; with ELK4, 0.808; with ETV4 it was 0.855; with ETV1, 0.844; with ERF, 0.862.
In the case of TGGGCG, the binding signal with ERG is 0.916; with ELF1 it was 0.911; with ELK4, 0.999; in the test with ETV4, 0.948; with ETV1, 0.87; with ERF, 0.896.
On to AGATGG, for which the binding signal with ERG turned out to be 0.913; with ELF1, 0.891; with ELK4, 0.957; in the test with ETV4, 0.873; with ETV1, 0.796; with ERF, 0.996.
With TCGTCG, the binding signal in the test with ERG was found to be 0.889; in the test with ELF1, 0.924; with ELK4, 0.944; in the test with ETV4, 0.864; in the test with ETV1, 0.957; with ERF, 0.939.
For the sequence AGTTAT, the binding signal with ERG was found to be 0.884; in the test with ELF1 it was 0.874; with ELK4, 0.961; with ETV4 it was 0.882; in the test with ETV1, 0.885; in the test with ERF, 0.881.
In the case of CGGACC, the binding signal in the test with ERG worked out at 0.797; with ELF1, 0.838; in the test with ELK4, 0.731; with ETV4 it was 0.906; in the test with ETV1 it was 0.783; in the test with ERF, 0.768.
As to GGATTA, the binding signal with ERG was 0.793; in the test with ELF1, 0.832; with ELK4 it was 0.893; in the test with ETV4, 0.821; in the test with ETV1, 0.792; with ERF it was 0.848.
As to AGATCA, the binding signal with ERG was found to be 0.787; with ELF1 it was 0.889; in the test with ELK4, 0.803; with ETV4 it was 0.811; with ETV1 it was 0.933; with ERF, 0.907.
Regarding GACCCA, the binding signal in the test with ERG worked out at 0.873; in the test with ELF1 it was 0.94; with ELK4, 0.917; in the test with ETV4, 0.934; with ETV1, 0.71; in the test with ERF it was 0.819.
For TGCAGA, the binding signal with ERG stood at 0.928; with ELF1, 0.927; in the test with ELK4, 0.989; in the test with ETV4, 0.915; in the test with ETV1, 0.999; in the test with ERF it was 0.956.
As to GATCTG, the binding signal was found to be 0.923 in the test with ERG; 0.899 in the test with ELF1; 0.912 with ELK4; 0.934 with ETV4; 0.964 in the test with ETV1; 0.995 with ERF.
As to CATTGG, the binding signal in the test with ERG came to 0.848; in the test with ELF1, 0.939; with ELK4, 0.86; in the test with ETV4 it was 0.892; in the test with ETV1, 0.886; with ERF, 1.05.
GCAGAA: the binding signal was 0.859 with ERG; 0.872 with ELF1; 0.869 in the test with ELK4; 0.827 in the test with ETV4; 0.985 in the test with ETV1; 0.964 with ERF.
Take ACATGA: the binding signal with ERG came to 0.977; with ELF1, 0.993; with ELK4, 0.968; with ETV4, 0.979; with ETV1, 0.936; with ERF it was 0.895.
Consider GATAAG, for which the binding signal with ERG was determined as 0.859; with ELF1, 0.914; with ELK4 it was 0.861; with ETV4, 0.932; with ETV1, 0.959; with ERF, 0.916.
As for GGGATT, the binding signal stood at 0.809 with ERG; 0.872 with ELF1; 0.886 with ELK4; 0.809 with ETV4; 0.906 with ETV1; 0.797 with ERF.
In the case of CATCGT, the binding signal in the test with ERG was determined as 0.884; with ELF1, 0.901; with ELK4, 0.971; in the test with ETV4, 0.938; with ETV1, 0.851; with ERF, 0.972.
Take AAGGGA: the binding signal with ERG is 0.922; with ELF1, 0.862; with ELK4, 0.812; with ETV4, 0.856; in the test with ETV1, 0.935; with ERF it was 0.843.
Regarding GACTAT, the binding signal came out at 0.953 in the test with ERG; 0.954 in the test with ELF1; 0.884 with ELK4; 0.999 with ETV4; 0.894 with ETV1; 0.982 with ERF.
As for CGGCAC, the binding signal with ERG is 0.999; with ELF1 it was 0.902; with ELK4 it was 0.929; in the test with ETV4 it was 0.994; in the test with ETV1, 0.981; with ERF it was 0.957.
For GACCGC, the binding signal was determined as 0.956 with ERG; 0.959 with ELF1; 0.971 with ELK4; 0.979 in the test with ETV4; 0.875 in the test with ETV1; 0.989 with ERF.
Take AGAGAA: the binding signal worked out at 0.849 in the test with ERG; 0.841 with ELF1; 0.706 with ELK4; 0.798 in the test with ETV4; 0.825 with ETV1; 0.827 with ERF.
For the sequence GACCCC, the binding signal with ERG was 0.94; with ELF1 it was 0.928; with ELK4, 0.918; in the test with ETV4 it was 0.956; in the test with ETV1, 0.946; with ERF, 0.859.
Take TTAGTG: the binding signal came to 0.784 with ERG; 0.922 with ELF1; 1.11 with ELK4; 0.871 with ETV4; 0.85 with ETV1; 0.702 in the test with ERF.
